The record followed here is PubChem BioAssay AID1347423 (Functional Genomics Laboratory (NCATS/FGL), 2020).

In all, about 52,000 sequences went through this assay and about 210 (0.4%) were called active.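 How the source made its calls: active means gene whose silencing raises cell survival under the drug, median off-target-corrected z-score across its silencing RNAs 2 or more; inactive means the rest.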 This is one part of the list.

This test in a line: Resistance to Poly (ADP-Ribose) Polymerase inhibitor: Gene Identification via Genome-wide siRNA Screen. The following applies: mouse BRCA2 R2336H ES cells, olaparib, CellTiter-Glo viability; stronger effect = higher value. An excerpt: The role of Poly (ADP-Ribose) Polymerase (PARP) proteins in DNA repair has been elegantly utilized for the synthetic lethality-based treatment of BRCA-deficient tumors by PARP inhibitors. PARP inhibitors are now being used for treatment of BRCA-deficient breast and ovarian cancers. […] While several mechanisms of drug resistance have been identified, majority of these tumors develop drug resistance due to unknown causes. To identified novel regulators of chemo-resistance in BRCA2-mutated cells, we performed a genome wide siRNA library screen. We have found ES cells expressing a hypomorphic allele of BRCA2 to be hypersensitive to PAPP inhibitors (such as olaparib). We used ES cells expressing a mutant allele of BRCA2 that has a single amino acid substitution at position 2336 (arginine to histidine, R2336H). The screen was conducted using an Ambion (Thermo) Silencer Mouse Genome siRNA collection. The library targets 17,575 mouse genes with 3 siRNAs per gene. TET2 (E130014J05Rik) was identified as a top candidate.
Transfections were performed in 384 well plates (Corning 3707). Plates were coated with 0.1% gelatin in H2O overnight at ambient temperature. Gelatin solution was aspirated (BioTek EL406) and siRNAs were printed using a Bravo VPrep liquid handler integrated within a BioCel automation platform (Agilent). Cell viability was measured using CellTiter Glo (Promega). For transfections, […] of serum free media containing Lipofectamine RNAiMax […] was added to wells containing siRNA (0.8pmol). Lipid and siRNA were allowed to complex for 45 min at ambient temperature before addition of 1000 cells in DMEM, 30% FBS to yield final transfection mixtures containing 20 nM siRNA in DMEM, 15% FBS. PARPi (olaparib, AZD2281) was added 48 h post-transfection (500 nM) and viability (CellTiter Glo, Promega) was assayed 72 h later on a PerkinElmer Envision 2104 Multilabel plate reader. Ambion Silencer Select Negative Control #2 was incorporated on all screening plates (16 wells) and the median negative control value on each plate was used for normalization. An siRNA targeting Trp53 was used as a positive control. This control yielded a median protective effect of ~1.9 fold versus negative control throughout the screen. The median absolute deviation (MAD) based z-score was calculated for each siRNA. Genes were then ranked by taking the median value for all siRNAs tested against a given gene. Scores were also adjusted for seed-based off-target effects to help deprioritize likely false positives.
(In general: ATP-based viability assays read luminescence as a measure of living cells.)
“GGAGGUUGUGAUCUUGAAATT against 4930451A13Rik”: the z-score was inactive: -0.069.
Regarding GGCUAAGUUCUAUAGUAAATT against Crkl, the z-score was inactive: -0.638.
On to GGACAAGAGGACUCAGAAATT against Camk1, for which the z-score was inactive: 0.326.
In the case of GCUUCAGAACACGACGACCTT against Sepm it was inactive: 0.877.
As for GGUGUCUGAUGAUGAAUAUTT against Cnnm3, the z-score was inactive: -2.55.
With GGGUCUGGUGAAGAACCUUTT against Akr1e1, the z-score was inactive: 1.08.
As to “GGUUAACUUCUGUUCCUGATT against 2310034L04Rik”, the z-score was inactive: -0.0336.
GCUACUGCCGGAAUUUGGUTT against Tiam1: the z-score was inactive: -0.113.
In the case of GGACAAGUUAACCAUUUUGTT against Asz1 it was inactive: 0.806; in that of GGCUCAAUGAGGGAUAAAATT against Qk, inactive: -0.303.
As to GGCCUUGUAACCAACUCCUTT against Sh3bgrl3, the z-score is inactive: 0.0495.
In the case of GAAAUAGAGAUGCCUCUCUTT against Olfr1161, the z-score is inactive: -0.926.
For the sequence CCAGGCAGUAUAAUCAUGUTT against Col4a5, the z-score was inactive: 0.545.
For GGGAAGAAAGGAUGGGAAATT against Fev, the z-score was inactive: -2.24.
Regarding “GGCAGAAGAACUUUUCCAGTT against 1700028N11Rik”, the z-score is inactive: 0.08.
For the sequence GGAGAAGCCAAAAGAAUGCTT against Xrn2, the z-score is inactive: 2.28.
As to GGUGUUCAAUGCUCACUAUTT against Zfp312, the z-score was inactive: 0.356.
Consider CGGGCUGAAGCUCAUUUCUTT against Gpd1, for which the z-score was inactive: 0.268.
Then GGCAAUGUAGUGAACAAACTT against Gtpbp1, with inactive: -1.22; and GGACUUAAUCAACCUAACCTT against Tmem23, with inactive: -0.143; and CCAGGAUGAAAAGUCGUUUTT against Slco2a1, with inactive: -0.076.
In the case of GGAAAACCUUUGUCAAAAATT against P2ry13 it was inactive: 1.98; in that of CGUGAACAGCUUUAAGGUGTT against Usp27x, inactive: -0.931; in that of GGCUUUAAUCCUAACCCUATT against AI854635, inactive: -0.607.
On to GGUGAAGUGAGCCUUUGUGTT against Cfhl1, for which the z-score is inactive: -2.42.
Consider CCGUCCAAAAGGACUUAUCTT against Nap1l2, for which the z-score is inactive: 0.343.
For “GGUUAUGAAUCUUUUCCCATT against 1810044O22Rik”, the z-score is inactive: -0.562.
On to GCUAAGAGGUUGUAGUUUUTT against Tbpl1, for which the z-score was inactive: 0.193.
In the case of CCACGACAUUCCAGAAAGGTT against Ian6 it was inactive: 0.192.
For GGUUUCUGACCUCAAUAGUTT against Cklfsf6, the z-score is inactive: 0.0838.
GCUUCGGUCAAAAGUGAGUTT against Glipr1: the z-score was inactive: -1.09.
For the sequence GGAGGAGUGUUGAACUAAATT against Ttc14, the z-score was inactive: 0.37.
In the case of GGAAGAGGAUAGGCAGGAATT against Gfer it was inactive: -0.273; in that of GGAAGACUUUGAAGAAAAATT against Olfr983, inactive: -0.56.
Take CCUGUUGAUUAAUUGAAGCTT against E2f2: the z-score is inactive: 1.45.
On to “CCCUAAAACCAAAUGUACATT against E130014J05Rik”, for which the z-score is active: 6.23.
As for GGAUACGAUCCAGUGUGCCTT against Lyzl4, the z-score was inactive: 0.308.
As to GGUUAAGAGCGUACGUUUUTT against BC054438, the z-score is inactive: 0.0663.
As for “GGUGCUCAAUAAAUGGAAUTT against 6720485C15Rik”, the z-score was inactive: -0.301.
For the sequence AGCCGAUCCUGUGCCUGUUTT against BC048355, the z-score is inactive: -2.64.
Regarding “CCCAGAUGGAUUUUUGCAUTT against 1700001E04Rik”, the z-score is inactive: 1.37.
Turning to GGGCUUAAUGGUAAAAUGATT against Slc40a1, the z-score was inactive: 0.291.
Then “CCUAGUGAAUCCUCUCGUATT against 4930579C15Rik”, with inactive: -0.933.
On to “CCAGUGCGUCACUCAGUAATT against 1700025E21Rik”, for which the z-score was inactive: 0.668.
Turning to GGUGGAAGAGGUCAAAUAATT against Denr, the z-score was inactive: -0.65.
In the case of GGAUUCGGGAAGGUGAGAUTT against Cep2 it was inactive: -0.667.
With GGGCCUGGAAAACAUUGACTT against Ndufa1, the z-score was inactive: 0.852.
Turning to GGCAAGGAUAAGACAGUAGTT against Hs3st3b, the z-score is inactive: -1.12.
In the case of GGCUCUACUGGUGAAGAGATT against Zfp459 it was inactive: -0.337; in that of “CAUAAAGGUGGCACUAAUATT against 1500041B16Rik”, inactive: -0.444; in that of GGAGGACAUUGAGAAGGAATT against Tnni3, inactive: -0.149.
Turning to “GGCCAUUGCUGGUUCUGCATT against 4930412M03Rik”, the z-score was inactive: -1.25.
“GCUUUGGUCGCUCUCGUGATT against 1700055O19Rik”: the z-score is inactive: -0.385.
Then GCAAUCUAUAAGAGGUACATT against Axin2, with inactive: -0.343.
Regarding GGAACCAAUCUGUCUCUCCTT against Cbfb, the z-score is inactive: -0.946.
With CCGUUGACCUGAAAAGGAATT against Clic4, the z-score was inactive: 0.151.
In the case of GCCAUUGUGACUGGAGACATT against Olfr804, the z-score was inactive: 0.135.
In the case of “GGACUUCAUCAACAACAUCTT against 2510027N19Rik”, the z-score was inactive: 0.824.
With “GGAGGUCAUUGUAUGGAACTT against 1110001C20Rik”, the z-score was inactive: 1.17.
In the case of GGAUCUUCCUGGAUGCCAATT against Hps1 it was inactive: -0.0393; in that of GGUAUAAAAUGGAAAACUCTT against Gpr23, inactive: 1.38.
GGAAGUUUGCUCAAUCUCATT against Jarid2: the z-score is inactive: 0.853.
For the sequence “GGCUGUUACUCUCUCUCUCTT against D730001G18Rik”, the z-score was inactive: -0.198.
On to GGGAAGAGCCAUCUCUUUUTT against Olfr140, for which the z-score is inactive: -0.466.
Turning to CGGUUGGUGGCAAUAUCCUTT against Olfr234, the z-score is inactive: -0.18.
Then GGAAGGGAUGCUCAUAGUATT against Hgfac, with inactive: 2.69.
